We go through 3 molecules from doi:10.1101/2024.05.06.590709 (bioRxiv, 2024).

Assay [1] addresses T1, 6XHis-GST-ATG8A (Arabidopsis thaliana) (UniProt Q8LEM4).
T1 sequence: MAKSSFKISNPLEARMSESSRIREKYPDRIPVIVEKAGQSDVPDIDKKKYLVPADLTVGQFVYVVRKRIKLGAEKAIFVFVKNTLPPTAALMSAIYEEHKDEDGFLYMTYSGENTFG
The assay is described as follows: pull-down.

Assay [2] has as its target T2, NIT1-Clover (Arabidopsis thaliana) (UniProt P32961).
T2 sequence: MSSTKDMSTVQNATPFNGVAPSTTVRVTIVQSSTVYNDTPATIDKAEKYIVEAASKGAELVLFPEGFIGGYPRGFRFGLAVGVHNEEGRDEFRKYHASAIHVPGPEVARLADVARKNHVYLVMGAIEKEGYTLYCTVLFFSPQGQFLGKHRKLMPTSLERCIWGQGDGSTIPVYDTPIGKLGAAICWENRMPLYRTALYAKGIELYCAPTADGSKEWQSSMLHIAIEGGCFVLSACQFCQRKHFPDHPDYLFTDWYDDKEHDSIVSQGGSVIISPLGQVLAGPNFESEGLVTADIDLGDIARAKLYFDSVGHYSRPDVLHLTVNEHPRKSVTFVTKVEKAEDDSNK
The assay is described as follows: co-IP.

Assay [3] has as its target T3, IMPDH1-Clover (Arabidopsis thaliana) (UniProt P47996).
T3 sequence: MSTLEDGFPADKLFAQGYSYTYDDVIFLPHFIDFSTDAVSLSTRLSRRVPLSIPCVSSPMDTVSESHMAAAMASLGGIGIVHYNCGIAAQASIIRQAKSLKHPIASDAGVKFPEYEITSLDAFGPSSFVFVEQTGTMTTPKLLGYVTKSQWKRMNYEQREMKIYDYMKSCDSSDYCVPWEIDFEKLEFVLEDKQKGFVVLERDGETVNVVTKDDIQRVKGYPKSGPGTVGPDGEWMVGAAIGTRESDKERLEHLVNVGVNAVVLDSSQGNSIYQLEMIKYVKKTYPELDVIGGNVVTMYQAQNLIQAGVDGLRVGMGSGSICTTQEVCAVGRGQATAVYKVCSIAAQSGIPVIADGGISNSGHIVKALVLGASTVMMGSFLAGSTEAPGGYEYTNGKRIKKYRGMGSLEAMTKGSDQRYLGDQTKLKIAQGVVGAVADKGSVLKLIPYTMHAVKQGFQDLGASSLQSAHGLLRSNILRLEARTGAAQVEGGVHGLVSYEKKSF
The assay is described as follows: co-IP.

The target of assay [4] is GST-ATG8A deficient in the AIM docking site (ADS) (Arabidopsis thaliana) (UniProt Q8LEM4). The assay is described as follows: pull-down.

No constants are given. Whether binding was seen depends on the method and setting. In cells and extracts the contact can be indirect. For some of these results: Binding can be weak; no strength is given. For some of these results: Where a sequence is shown, tags or fusion partners need not be part of it.

For the molecule “MBP-IMPDH1 Bateman domain (Arabidopsis thaliana) (domain or fragment)”, the binding entry in assay [1] was “binds”.
With EDS1, endogenous, the binding result in assay [2] and in assay [3] was “binds” throughout.

B1: His-MBP-IMPDH1 (enzyme, UniProt P47996 1-503)
chain: T3 sequence
As to B1, the binding entry in assay [4] was “no binding”.
